No constants are given. Whether binding was seen depends on the method and setting. Some binding calls cover weakened binding; strength is not graded here.
Experiments:
[1] = molecular target: T1, N-terminal adiponectin peptide … (human); experiment: ELISA, peptide coated on 96 well plates
T1 sequence (peptide): ETTQGPGVLLPLPKGAC

Amino acid sequences for entries named in this document (tags omitted). A change or cut given only in a name is not applied to a line headed by its entry. Chains listed by the source or under a name are the forms on record and can include a tag or linker. Residues count along the entry.
UniProt Q15848: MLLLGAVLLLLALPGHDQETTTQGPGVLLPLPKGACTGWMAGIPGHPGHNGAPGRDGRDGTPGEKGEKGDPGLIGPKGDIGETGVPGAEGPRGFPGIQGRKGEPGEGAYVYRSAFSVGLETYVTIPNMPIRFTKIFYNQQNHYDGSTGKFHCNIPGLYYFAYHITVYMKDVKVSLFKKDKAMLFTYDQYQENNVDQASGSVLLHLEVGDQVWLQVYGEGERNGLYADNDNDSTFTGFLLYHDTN
adiponectin (16-247) from Alexis Biochemicals, cat#ALX-522-063, with an N-terminal FLAG tag: residues 16-244 of Q15848
human adiponectin (native, in human plasma): residues 19-244 of Q15848

[2] = molecular target: adiponectin (16-247) from Alexis Biochemicals, cat#ALX-522-063, with an N-terminal FLAG tag (UniProt Q15848); experiment: sandwich ELISA standard curve, mAb as capture, C-terminal pAb as detection (standard per paragraph 70, FIG. 11b)
[3] = molecular target: human adiponectin (native, in human plasma) (human) (UniProt Q15848); experiment: sandwich ELISA on velocity sedimentation fractions of human plasma, mAb as capture
[4] = molecular target: human adiponectin (native, in human plasma) (human) (UniProt Q15848); experiment: ELISA, western blot, immunofluorescence

Measured: binding

B1: mAb adiponectin M24 (N-ADIP-M24, Roche) (antibody, V domains shown)
VH: AGGDHGAELVRPGALVRLSCKASGFNIKDYHMSWLKQRPEQGLEWIGWIDPENGNAIHDPKFQDKANITADTSSNTAYLQLSSLTSEDTAVYFCARSGPAWFAYWGQGTLVTVSA
VL: MTQTPLSLPVSLGDQASISCRSSQTIVYSNGNTYLEWYLQKPGQSPKLLIYKVSNRFSGVPDRFSGSGSGTDFTLKISRVESEDLGIYYCFQGSHVPRTFGGGTKLEIKR
binds: all assays above

Reference: patent US20090123943A1
